Data reported in paper PMC11261448.
No constants are given. Whether binding was seen depends on the method and setting. Binding seen in cells or lysates may run through a third protein. Some results given as binding are weak or reduced against the parent protein; the word gives no strength.

Amino acid sequences for entries named in this document (tags omitted). A change or cut given only in a name is not applied to a line headed by its entry.
UniProt Q23670: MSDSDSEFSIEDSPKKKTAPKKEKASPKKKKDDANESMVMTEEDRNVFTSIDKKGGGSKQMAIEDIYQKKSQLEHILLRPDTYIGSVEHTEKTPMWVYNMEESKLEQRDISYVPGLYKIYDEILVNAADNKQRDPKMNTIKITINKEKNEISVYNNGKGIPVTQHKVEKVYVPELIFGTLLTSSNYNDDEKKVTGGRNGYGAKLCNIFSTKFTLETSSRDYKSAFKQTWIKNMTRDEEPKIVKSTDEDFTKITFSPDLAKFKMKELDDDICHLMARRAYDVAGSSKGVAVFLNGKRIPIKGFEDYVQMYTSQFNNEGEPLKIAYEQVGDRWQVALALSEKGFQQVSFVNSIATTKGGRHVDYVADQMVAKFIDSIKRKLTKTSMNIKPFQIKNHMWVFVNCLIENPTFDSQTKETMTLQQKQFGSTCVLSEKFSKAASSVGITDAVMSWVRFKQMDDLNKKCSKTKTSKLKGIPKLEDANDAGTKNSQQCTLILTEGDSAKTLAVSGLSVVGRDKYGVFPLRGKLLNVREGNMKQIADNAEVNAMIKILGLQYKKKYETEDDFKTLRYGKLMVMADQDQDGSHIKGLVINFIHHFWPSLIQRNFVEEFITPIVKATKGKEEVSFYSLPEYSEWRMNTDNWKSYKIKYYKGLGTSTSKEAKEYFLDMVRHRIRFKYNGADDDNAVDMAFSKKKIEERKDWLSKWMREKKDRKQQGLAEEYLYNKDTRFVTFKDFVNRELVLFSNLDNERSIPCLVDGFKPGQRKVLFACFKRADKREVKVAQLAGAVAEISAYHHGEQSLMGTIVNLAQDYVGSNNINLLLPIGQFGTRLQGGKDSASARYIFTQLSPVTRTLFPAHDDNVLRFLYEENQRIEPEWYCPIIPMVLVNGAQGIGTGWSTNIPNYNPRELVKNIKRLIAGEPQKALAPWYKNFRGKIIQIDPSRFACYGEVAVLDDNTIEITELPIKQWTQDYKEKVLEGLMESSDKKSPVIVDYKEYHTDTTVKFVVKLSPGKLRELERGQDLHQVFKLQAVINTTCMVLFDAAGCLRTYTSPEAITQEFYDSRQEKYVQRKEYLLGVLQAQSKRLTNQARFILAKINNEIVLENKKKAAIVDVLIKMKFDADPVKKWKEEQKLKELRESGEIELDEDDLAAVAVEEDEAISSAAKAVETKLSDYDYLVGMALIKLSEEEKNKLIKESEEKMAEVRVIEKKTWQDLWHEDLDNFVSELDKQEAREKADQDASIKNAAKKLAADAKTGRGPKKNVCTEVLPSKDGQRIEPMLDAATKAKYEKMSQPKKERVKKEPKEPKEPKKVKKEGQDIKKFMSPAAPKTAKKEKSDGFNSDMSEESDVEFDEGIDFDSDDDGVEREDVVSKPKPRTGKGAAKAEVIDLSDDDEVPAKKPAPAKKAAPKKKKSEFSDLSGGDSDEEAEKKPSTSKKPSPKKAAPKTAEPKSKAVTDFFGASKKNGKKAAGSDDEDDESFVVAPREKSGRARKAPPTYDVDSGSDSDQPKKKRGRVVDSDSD

T1: wrmScarlet::TDPT-1 (C. elegans) (UniProt Q9XWG3)
T1 sequence: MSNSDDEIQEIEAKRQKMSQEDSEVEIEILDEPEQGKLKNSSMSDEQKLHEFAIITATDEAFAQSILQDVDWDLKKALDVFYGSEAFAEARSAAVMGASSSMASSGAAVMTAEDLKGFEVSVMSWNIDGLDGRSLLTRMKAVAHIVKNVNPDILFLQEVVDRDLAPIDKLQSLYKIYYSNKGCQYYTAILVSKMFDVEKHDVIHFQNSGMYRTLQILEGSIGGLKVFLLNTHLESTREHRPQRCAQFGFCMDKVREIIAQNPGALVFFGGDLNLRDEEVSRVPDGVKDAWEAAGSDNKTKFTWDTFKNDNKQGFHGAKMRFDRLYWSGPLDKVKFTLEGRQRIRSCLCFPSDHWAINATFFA


What was measured:
[1] = molecular target: T1, wrmScarlet::TDPT-1 (C. elegans); experiment: co-IP; reciprocal: IPs of wrmScarlet::TDPT-1 from worm lysates (Fig. S5A)
[2] = molecular target: TOP-2 [R828C]::3xFLAG (C. elegans) (UniProt Q23670); experiment: co-IP; whole-worm lysates (1.5 mg) on anti-FLAG magnetic agarose beads, 1 h at 4 °C, wash buffer 10 mM Tris/Cl pH 7.5, 150 mM NaCl, 0.5 mM EDTA; TOP-2::3xFLAG precipitated, wrmScarlet::TDPT-1 detected by anti-RFP immunoblot
[3] = molecular target: TOP-2::3xFLAG (C. elegans) (UniProt Q23670); experiment: as above

Row | binding [1] | binding [2] | binding [3] | Molecule
1 | binds | – | – | TOP-2::3xFLAG (from UniProt Q23670 1-1520)
2 | – | binds | binds | wrmScarlet::TDPT-1 (protein, UniProt Q9XWG3 1-362) MSNSDDEIQEIEAKRQKMSQEDSEVEIEILDEPEQGKLKNSSMSDEQKLHEFAIITATDEAFAQSILQDVDWDLKKALDVFYGSEAFAEARSAAVMGASSSMASSGAAVMTAEDLKGFEVSVMSWNIDGLDGRSLLTRMKAVAHIVKNVNPDILFLQEVVDRDLAPIDKLQSLYKIYYSNKGCQYYTAILVSKMFDVEKHDVIHFQNSGMYRTLQILEGSIGGLKVFLLNTHLESTREHRPQRCAQFGFCMDKVREIIAQNPGALVFFGGDLNLRDEEVSRVPDGVKDAWEAAGSDNKTKFTWDTFKNDNKQGFHGAKMRFDRLYWSGPLDKVKFTLEGRQRIRSCLCFPSDHWAINATFFA
3 | – | binds | binds | wrmScarlet::TDPT-1 [G117R] (protein, UniProt Q9XWG3 1-362) MSNSDDEIQEIEAKRQKMSQEDSEVEIEILDEPEQGKLKNSSMSDEQKLHEFAIITATDEAFAQSILQDVDWDLKKALDVFYGSEAFAEARSAAVMGASSSMASSGAAVMTAEDLKRFEVSVMSWNIDGLDGRSLLTRMKAVAHIVKNVNPDILFLQEVVDRDLAPIDKLQSLYKIYYSNKGCQYYTAILVSKMFDVEKHDVIHFQNSGMYRTLQILEGSIGGLKVFLLNTHLESTREHRPQRCAQFGFCMDKVREIIAQNPGALVFFGGDLNLRDEEVSRVPDGVKDAWEAAGSDNKTKFTWDTFKNDNKQGFHGAKMRFDRLYWSGPLDKVKFTLEGRQRIRSCLCFPSDHWAINATFFA
